Library screen at single concentrations

Chains of the proteins cited; added tags and fusions are not shown. Residues count along the entry.
UniProt Q4DA54, 1-478: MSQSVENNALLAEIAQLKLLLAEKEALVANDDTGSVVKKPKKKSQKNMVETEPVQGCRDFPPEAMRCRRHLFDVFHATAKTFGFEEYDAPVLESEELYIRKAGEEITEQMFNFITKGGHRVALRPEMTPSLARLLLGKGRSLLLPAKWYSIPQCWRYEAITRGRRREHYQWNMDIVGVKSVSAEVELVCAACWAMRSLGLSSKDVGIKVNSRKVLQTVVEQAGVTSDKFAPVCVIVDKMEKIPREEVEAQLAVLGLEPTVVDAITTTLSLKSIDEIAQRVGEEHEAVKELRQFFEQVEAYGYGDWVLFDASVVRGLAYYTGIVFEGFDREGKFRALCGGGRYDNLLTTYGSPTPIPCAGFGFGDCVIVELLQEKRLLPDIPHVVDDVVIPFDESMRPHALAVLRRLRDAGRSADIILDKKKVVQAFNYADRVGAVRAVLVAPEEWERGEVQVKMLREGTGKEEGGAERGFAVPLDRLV

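Enzyme assay of histidyl-tRNA synthetase; the read-out is not stated. Target: Histidine-tRNA ligase, Trypanosoma cruzi CL Brener (UniProt Q4DA54). Tested at 30 µM. The record gives no direction; compounds that gave an IC50 in retests scored well above the rest, so higher reads as stronger inhibition. About 69,000 compounds were tested under these conditions; 0.045% (about 31) showed 50% or more at least once.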

Results are given as percent effect.
The record does not define 0% and 100%; most values in the screen are far below 50% and negative numbers occur (in some assays of this library far below -100).
This is an unselected part of the compounds tested.

compound,percent effect
Cc1cccc(CN2CCC3(CCCN(C(=O)N4CCCC4)C3)C2=O)n1 (centres undefined),2.151
Cc1cc(O)nc(C2CCCN(CCO)C2)n1 (centres undefined),-1.88
COc1ncccc1NC(=O)C1CCN(S(C)(=O)=O)CC1,-3.053
CC(=O)N1N=C(c2cccs2)OC1C(=O)NCCc1cccc(Cl)c1 (centres undefined),1.136
O=C(Nc1nnc(C2CC2)s1)NC1CCN(Cc2ccccc2)C1 (centres undefined),2.29
NC(=O)C1CCN(CC(=O)N(Cc2ccccc2)Cc2nccs2)CC1,3.483
O=C([C@@H]1COC[C@H]2CN(C3CCCC3)C[C@H]21)N1CCCO1,5.473
Cc1noc([C@H]2COC[C@H]3CN(C(=O)Cc4ccsc4)C[C@H]32)n1,8.537
c1cn2c(n1)CNCC(COCC1CC1)C2 (centres undefined),2.532
O=C(CCc1ccccn1)NC1CCN(c2cccc(Cl)c2)C1 (centres undefined),5.063
CCc1noc(-c2cccc(NC(=O)C(C)(C)C)c2)n1,0.8
Cc1ncsc1CNC(=O)N1CCN(Cc2ccccc2)CC1C (centres undefined),7.097
O=C(NC1CCN(c2ccc(-c3ccccc3F)nn2)C1)C1CCC1 (centres undefined),6.186
COCCNS(=O)(=O)c1ccc2c(c1)CCN(C(=O)c1cncn1C)C2,5.691
COCCN(Cc1cccc(O)c1)CC1CC1,1.22
N#Cc1cccc(N2CCC3(CCC(=O)N(CC4CCCO4)C3)CC2)n1 (centres undefined),2.02
Cc1noc(C)c1CN(C)Cn1c(=O)oc2ccccc21,1.442
O=C(NCCCO)c1nc(-c2ccc3cc[nH]c3c2)no1,5.263
CC(c1nc(C(C)(C)C)no1)N1CCN(Cc2ccc(C#N)cc2)CC1 (centres undefined),6.977
CN(Cc1cccnc1)CC1CC12CCCC2 (centres undefined),5
O=C(NCCN1CCCCC1)c1ccn(-c2ccccc2)n1,-1.149
CCc1nnc(CN(C)c2nccc(CCC(F)(F)F)n2)o1,7.792
O=C(CSC(F)(F)F)N1CCC2(CCCN(C3CCOCC3)C2=O)C1 (centres undefined),-5.025
OC(COCc1ccccc1)CN1CC(n2cccn2)C1 (centres undefined),2.367
CC(C)CNC(=O)c1ccc(NC(=O)NC(C)C)cc1Cl,8.621
c1c[nH]c2nc(C3CCNC3)nc-2c1 (centres undefined),1.775
CCOc1ccc(C#N)cc1NCC(=O)NC(=O)Nc1ccccc1,-16.86
Cc1noc(CCCNC(=O)CNC(=O)c2cc3ccccc3[nH]2)n1,1.327
CN(CCCc1ccccc1)Cc1nc2c(cnn2C)c(=O)[nH]1,2.256
O=c1cc(N2CCNCC2)cnn1CCCn1cccn1,4.598
CCCC1(CO)CCCN(c2ncccc2F)C1 (centres undefined),5.833
Cc1nc2ccccc2nc1CN1CCCCC1Cn1cncn1 (centres undefined),-0.8403
Cc1ccccc1CN1CCC2(CC1)CN(S(=O)(=O)c1ccccc1)C2,-0.9709
CCN1CCN(C(=O)CCC2CCN(C(C)CCC(=O)OC)CC2)CC1 (centres undefined),0.4878
CC1CCN(C(=O)c2ccn(COc3ccc(F)cc3)n2)CC1,4.184
c1cnc(NCc2noc3c2CN(C2CCOC2)CC3)nc1 (centres undefined),0.9901
CC(C)NC(=O)NC(=O)C(C)N1CCN(C2CCN(C(C)C)CC2)CC1 (centres undefined),1.176
CC(C)c1ccc(C(=O)N2CCOCC2CC(=O)c2ccco2)cn1 (centres undefined),4.523
COCc1ccc(C(=O)N2CCCN(c3ccc(F)cc3)CC2)s1,6.341
N#Cc1cccc(C(=O)N2CCn3c(Cn4cncn4)cnc3C2)c1,2.857
Cn1cccc1C(=O)N1CCN2C[C@H](Oc3cccnc3)C[C@H]2C1,-2.4
O=c1c(NCc2ccncc2)c(NCC(O)CN2CCOCC2)c1=O (centres undefined),1.754
CCN1CCOCC12CCN(C(=O)c1ccsc1)CC2,6.135
Cn1ccnc1CN1CCC2(COCCN(S(=O)(=O)C3CC3)C2)C1 (centres undefined),2.793
CCN1CCC(CC(=O)N(C)C(C)c2cncs2)CC1 (centres undefined),3.867
CCCNC(=O)CCNc1cncc(-n2nc(C)cc2C)n1,2.41
CCOC1CC2(CCN(C(C)=O)CC2)c2cc(F)ccc21 (centres undefined),1.227
COc1cc(C(C)NCc2ncccc2C)ccc1SC(F)F (centres undefined),-2.062
CCCOc1cccc(NC(=O)NC2CCc3nc(C)nn3C2)c1 (centres undefined),5.195
Oc1cc(C2CCCCN2Cc2ccsc2)nc(-c2ccncc2)n1 (centres undefined),3.101
CN1CC2(CCN(c3ncnc4c3CCNC4)CC2)OC1=O,6.077
Cc1ccc(N2CCO[C@H]3CN(Cc4cc(C)on4)CC[C@H]3C2=O)cn1,8.163
CCN(C(=O)c1ccccc1I)C1CC(=O)NC1=O (centres undefined),5.195
Cc1cnn(C2CN(CCOc3ccc(C#N)cc3)C2)c1,2.679
CCOCCC1(CNC(=O)c2ccncc2)CCC1,3.982
COc1cc(C)ccc1OCc1nc(C(=O)N2CCCO2)co1,-3.448
Cc1nn(C)c(C)c1C1CCCN1Cc1nc(N)c2ccccc2n1 (centres undefined),6.553
Cc1nc2c(c(N3CCN(c4ncccc4C(N)=O)CC3)n1)CCNC2,3.665
CC(=O)N1CCC(C(=O)N(C)[C@@H]2CCC[C@@H](N3CCCC3)[C@@H]2O)CC1,0.5405
CN(C)Cc1ccnc(C2CN(CCCc3ccccc3)CCO2)n1 (centres undefined),16.67
c1ccc(CN2CCc3c(COCc4ccncc4)cncc3C2)nc1,9.135
CC(C)CN1C(=O)CO[C@@H]2CNC[C@H]21,-24.74
CCOC(=O)[C@]12CCCN(Cc3nccs3)C[C@H]1CN(CCN(C)C)C2,1.087
CC(C)Oc1ccccc1C1CC(=O)Nc2c1cnn2C (centres undefined),3.261
O=C(NCCc1ccco1)Nc1cc(C(F)(F)F)c[nH]c1=O,4.373
CCN(C)c1nccc(N2CCN[C@H]3CS(=O)(=O)C[C@H]32)n1,4.545
CC(C)N1CCCC(CCCc2ccccn2)(C(=O)O)C1 (centres undefined),2.703
Cc1csc(N2CCCN(C(=O)Cn3cncn3)CC2)n1,9.357
O=C(CCCSc1ccc(NC(=O)C2CC2)nn1)NCC1CCCO1 (centres undefined),2.424
O=C1CCOCCN1Cc1ccc(C(F)(F)F)c(F)c1,3.865
CC1(C)COCCN1C(=O)Cc1csc(Cc2ccccn2)n1,8.621
CCOc1ccc(N(C)Cc2nnc(C)o2)cc1,1.587

Repeated from the top, 4 entries:

For Cc1cccc(CN2CCC3(CCCN(C(=O)N4CCCC4)C3)C2=O)n1 (centres undefined) the result was 2.151%.
For Cc1cc(O)nc(C2CCCN(CCO)C2)n1 (centres undefined) the result was -1.88%.
For COc1ncccc1NC(=O)C1CCN(S(C)(=O)=O)CC1 the result was -3.053%.
For CC(=O)N1N=C(c2cccs2)OC1C(=O)NCCc1cccc(Cl)c1 (centres undefined) the result was 1.136%.

Measurements from “University of Dundee, Small-Polar-MMV Screening Library” (2021), ChEMBL document CHEMBL3988442.